Values from PubChem BioAssay AID1259254 (NCATS, 2017)

- Screen: 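Gene knock-downs that lead to re-replication, shown by excess G2 DNA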 (primary screen)
- Cell system: human HCT116 colorectal cancer cells
- Knock-down reagent: single siRNA against human genes
- Time to read-out: 3 days
- Detection: 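Imaged Hoechst DNA stain sorts each cell into a cycle phase by DNA amount; per plate, G2 fraction set to 0% for non-targeting and 100% for GMNN siRNA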
- Direction: G2 robust z-score and G2 cells, % of GMNN control: higher = more G2 cells, more excess DNA replication
- Rule for the call: 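An siRNA counts as active if its G2 robust z-score lies at least 5 MADs above the screen median; here such calls match roughly 38% of GMNN control or more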
Here is an unselected part of about 59,000 reagents tested. In the full data, about 1,550 (2.6%) are marked active. 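G2 share is only a proxy for re-replication; each gene was hit by three separate siRNAs, and active genes were retested.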 Entries without a mark were called inactive. The numbers tell different reagents against one gene apart. Further read-outs or replicates are left out here. The record does not give: the amount of reagent.

G2 robust z-score,"G2 cells, % of GMNN control",gene,siRNA no.
-0.565,-1.01,RAD54L,1
-0.249,1.22,RAD54L,2
-0.438,-0.117,RAD54L,3
-0.46,-0.268,NR2C1,1
-1.07,-4.59,NR2C1,2
-0.784,-2.55,NR2C1,3
0.538,6.75,SLC22A13,1
2.61,21.3,SLC22A13,2
0.597,7.17,SLC22A13,3
-0.654,-1.64,PMS2P12,1
0.996,9.98,PMS2P12,2
-0.951,-3.73,PMS2P12,3
8.8 (active),64.9,URGCP,1
-0.0169,2.85,URGCP,2
-0.0762,2.43,URGCP,3
-1.23,-5.72,TTF1,1
-0.609,-1.32,TTF1,2
-0.75,-2.31,TTF1,3
-0.724,-2.13,HINT2,1
1.23,11.6,HINT2,2
-0.575,-1.08,HINT2,3
-0.709,-2.02,BOD1L1,1
-0.343,0.551,BOD1L1,2
-0.055,2.58,BOD1L1,3
-0.861,-3.09,ZNF32,1
-1.06,-4.48,ZNF32,2
2.63,21.5,ZNF32,3

Next part (5 carried over from the part before).
G2 robust z-score,"G2 cells, % of GMNN control",gene,siRNA no.
-0.343,0.551,BOD1L1,2
-0.055,2.58,BOD1L1,3
-0.861,-3.09,ZNF32,1
-1.06,-4.48,ZNF32,2
2.63,21.5,ZNF32,3
-0.813,-2.75,F13B,1
-0.7,-1.96,F13B,2
1.32,12.3,F13B,3
0.809,8.66,CANT1,1
-0.943,-3.66,CANT1,2
-0.964,-3.82,CANT1,3
0.821,8.74,C16orf46,1
1.56,13.9,C16orf46,2
-0.0623,2.53,C16orf46,3
0.104,3.7,SCX,1
-0.699,-1.95,SCX,2
-0.649,-1.6,SCX,3
2.81,22.7,FOXI1,1
3.31,26.3,FOXI1,2
3.86,30.1,FOXI1,3
-0.567,-1.02,VEGFB,1
0.329,5.28,VEGFB,2
-0.878,-3.21,VEGFB,3
0.354,5.46,DYNLT2B,1
1.33,12.3,DYNLT2B,2
0.138,3.94,DYNLT2B,3
2.28,19,PROSER3,1
-0.324,0.686,PROSER3,2
0.00296,2.99,PROSER3,3
-0.189,1.64,SEMA4C,1
3.78,29.5,SEMA4C,2
0.939,9.58,SEMA4C,3
0.0324,3.2,ALG12,1
-0.0689,2.48,ALG12,2
-0.304,0.829,ALG12,3
0.315,5.18,BANF2,1
-0.523,-0.714,BANF2,2
-0.367,0.388,BANF2,3
0.525,6.66,DDX47,1
1.43,13,DDX47,2
0.267,4.85,DDX47,3
1.77,15.4,H4C7,1
0.156,4.07,H4C7,2
1.26,11.8,H4C7,3
-0.377,0.313,C10orf62,1
0.246,4.7,C10orf62,2
-0.857,-3.06,C10orf62,3
